One experiment addresses PaCAγ1 (Pseudomonas aeruginosa, UniProt Q9HT34). Put plainly: biochemical.
The next experiment deals with psCA1. The settings on record: read-out: KI psCA1; 20 °C, 10 mM Tris buffer, 20 mM NaClO4 pH 8.3; ref [52]; cited from earlier work.
The mark [1] stands for this setting: Stopped-Flow assay, mean from 3 different assays, read-out: KI PaCAγ1.

By UniProt entry, the sequences of proteins in these tests, tags left out.
UniProt Q9HT34, entry or part of it: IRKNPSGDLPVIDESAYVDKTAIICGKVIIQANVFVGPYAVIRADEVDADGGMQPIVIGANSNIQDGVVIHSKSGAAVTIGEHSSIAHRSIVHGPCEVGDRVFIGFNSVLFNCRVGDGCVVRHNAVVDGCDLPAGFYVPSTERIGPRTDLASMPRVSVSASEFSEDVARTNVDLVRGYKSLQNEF

“And” between values parts separate entries of the source, which are not always exact repeats. Equal entries are not always repeated. Where two headings read alike, the source gives them in different places.

A word on the Ki: it is the dissociation constant of the complex between target and ligand, obtained from inhibition or displacement. Consider `CC(=O)Nc1nnc(S(N)(=O)=O)s1` [AAZ, acetazolamide], for which the Ki on PaCAγ1 (KI (nM, AAZ) PaCAγ1, 20 °C, 20 mM TRIS pH 7.4, 10 mM NaClO4) is 47.2 ± 2.17 nM; at PaCAγ1 (setting [1]), 47.2 ± 2.17 nM; on psCA1, 37 nM.

As for `CCN[C@H]1C[C@H](C)S(=O)(=O)c2sc(S(N)(=O)=O)cc21` [DZA], the Ki on PaCAγ1 (setting [1]) was < 1000 nM and 169 nM.
